No constants are given. Whether binding was seen depends on the method and setting. Some results given as binding are weak or reduced against the parent protein; the word gives no strength.
Legend:
[1] = target: T1, mouse RELT protein (receptor expressed on lymphoid tissues) (mouse) (UniProt Q8BX43); assay: western blot of mouse CD4+ cell total protein, primary antibody 0.5 ug/mL
T1 sequence (looked up): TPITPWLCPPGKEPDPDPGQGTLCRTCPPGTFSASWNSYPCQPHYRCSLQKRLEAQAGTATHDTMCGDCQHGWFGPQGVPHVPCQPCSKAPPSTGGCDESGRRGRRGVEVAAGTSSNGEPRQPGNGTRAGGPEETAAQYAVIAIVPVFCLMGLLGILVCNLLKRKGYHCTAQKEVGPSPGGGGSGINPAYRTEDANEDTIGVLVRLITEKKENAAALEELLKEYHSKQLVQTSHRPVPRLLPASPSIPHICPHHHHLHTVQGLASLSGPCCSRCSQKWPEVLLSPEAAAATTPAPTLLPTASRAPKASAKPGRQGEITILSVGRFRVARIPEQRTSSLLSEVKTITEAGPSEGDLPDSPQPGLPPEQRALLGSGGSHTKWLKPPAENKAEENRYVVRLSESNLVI

[2] = target: T1, mouse RELT protein (receptor expressed on lymphoid tissues) (mouse); assay: immunofluorescence on paraffin sections of mouse pancreas, primary antibody 10 ng/mL
[3] = target: T2, RELT antigen polypeptide of 32 aa to 169 aa (SEQ ID NO: 1); assay: ELISA of single B cell clone culture supernatant on the antigen
T2 sequence (peptide): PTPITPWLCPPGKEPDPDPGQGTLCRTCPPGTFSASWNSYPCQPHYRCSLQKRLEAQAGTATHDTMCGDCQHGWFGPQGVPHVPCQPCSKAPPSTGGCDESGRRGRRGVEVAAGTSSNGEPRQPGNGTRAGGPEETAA

binding [1]: binds
binding [2]: binds
binding [3]: binds
B1: anti-RELT recombinant rabbit monoclonal antibody E19399-5B2 (antibody)
heavy: QSVKESGGGLFKPTDTLTLTCTVSGFSLSTYAMSWVRQTPGIGLEWIGIVNVAGDTAYASWAMSRSTITRNTNDNTVTLKMTSLTAADTATYFCTRHGENIGDMWGPGTLIAVSSVPATPPIIFPLTCPGCVLKDTSATIVAGCLVKGYLPEPVTVTWNSGTLTNGVRTFPSVRQSSGLYSLSSVVSVTSSSQPVTCNVAHPATNTKVDKTVAPSTCSKPMCPPPELPGGPSVFIFPPKPKDTLMISRTPEVTCVVVDVSQDDPEVQFTWYINNEQVRTARPPLREQQFNSTIRVVSTLPIAHQDWLRGKEFKCKVHNKALPAPIEKTISKARGQPLEPKVYTMGPPREELSSRSVSLTCMINGFYPSDISVEWEKNGKAEDNYKTTPTVLDSDGSYFLYSKLSVPTSEWQRGDVFTCSVMHEALHNHYTQKSISRSPGK
light: DPVMTQTPSSTSAAVGGTVTINCQASQSVYANNYLSWFQKKPGQPPKQLIYDASTLASGVPSRFKGSGSGTQFTLTISGVQCDDAAAYYCAGGFTGAIFPFGGGTEVVVKGDPVAPTVLIFPPAADQVATGTVTIVCVANKYFPDVTVTWEVDG

Source: patent US12215153
